Some of these results come from one statement about several compounds together.
System: pGL3
Experiment: thiazole orange displacement assay of Man 9 glycopeptide
Type: binding
Details: pGL3 1 μg, 40 nM thiazole orange
Protocol: A control sample of pGL3 (1 μg) was combined with 40 nM thiazole orange in a total volume of 500 μl of 5 mM Hepes buffer pH 7.4. The Man 9 glycopeptide (0.2, 0.3, 0.4, 1 and 2 nmol) or Cys-(Acr-Lys)4 peptide (SEQ ID NO: 23) was added to pGL3 (1 μg) samples containing thiazole orange, and incubated for 30 min, followed by measuring the fluorescence intensity at excitation 500 nm and emission 530 nm (Wadhwa, M. S., Collard, W. T., Adami, R. C., McKenzie, D. L., and Rice, K. G. (1997) Peptide-mediated gene delivery: influence of peptide structure on gene expression. Bioconjugate Chemistry 8, 81-8). The percent fluorescence intensity relative to control was plotted versus the stoichiometry of glycopeptide or peptide added to DNA to determine the equivalence point.

Substance	thiazole orange displacement, asymptote / equivalence point for polyplex formation
Cys-(Acr-Lys)4: DNA binding polyacridine peptide with N-terminal Cys, prepared with Fmoc-Lys(Acr); SEQ ID NO: 23	0.2-0.4 nmol per μg of DNA
Man 9 glycopeptide: high mannose N-glycan Man 9 Mal (Tyr, propionate maleimide) conjugated to Cys-(Acr-Lys)4	0.2-0.4 nmol per μg of DNA

From US20120035320A1, “POLYACRIDINE NUCLEIC ACID DELIVERY PEPTIDE COMPLEXES” (University of Iowa Research Foundation, priority 2010, published 2012)
